Reference: doi:10.1101/2020.07.08.192955
Residue numbers refer to the chain shown, from its start. Results are given in words; binding and its absence hold for the method and conditions named. In cells and extracts the contact can be indirect. Some results given as binding are weak or reduced against the parent protein; the word gives no strength. Sequences can lack the tags named with a protein.

The chains behind the UniProt entries cited, without tags or fusion partners. Residues count along the entry.
UniProt P11021, residues 19-654: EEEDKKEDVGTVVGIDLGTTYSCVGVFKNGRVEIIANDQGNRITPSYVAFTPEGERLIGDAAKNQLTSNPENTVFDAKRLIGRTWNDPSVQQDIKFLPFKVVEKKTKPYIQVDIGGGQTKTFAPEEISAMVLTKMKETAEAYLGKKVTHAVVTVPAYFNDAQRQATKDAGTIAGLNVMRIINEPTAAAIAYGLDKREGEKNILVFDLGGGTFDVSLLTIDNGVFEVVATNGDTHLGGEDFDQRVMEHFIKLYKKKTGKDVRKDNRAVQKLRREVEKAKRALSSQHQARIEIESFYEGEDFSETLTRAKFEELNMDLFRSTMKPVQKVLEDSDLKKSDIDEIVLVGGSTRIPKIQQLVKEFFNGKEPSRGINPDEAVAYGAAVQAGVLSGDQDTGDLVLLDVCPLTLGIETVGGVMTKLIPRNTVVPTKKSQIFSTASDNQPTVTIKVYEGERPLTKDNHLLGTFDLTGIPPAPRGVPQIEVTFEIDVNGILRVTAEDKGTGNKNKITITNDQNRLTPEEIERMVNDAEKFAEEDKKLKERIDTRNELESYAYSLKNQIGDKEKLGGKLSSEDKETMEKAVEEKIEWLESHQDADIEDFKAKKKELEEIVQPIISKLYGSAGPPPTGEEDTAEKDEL

T1: soluble misfolded CD59 (EGFP-FLAG-CD59 (C94S, G103*)) (UniProt P13987)
T1 sequence (chain, N-glycan (site N43); no GPI): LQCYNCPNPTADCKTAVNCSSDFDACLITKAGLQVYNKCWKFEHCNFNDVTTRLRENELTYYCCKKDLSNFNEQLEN

T2: WT EGFP-FLAG-CD59 (UniProt P13987)
T2 sequence (chain, N-glycan (site N43); GPI-anchor): T1 sequence (chain, N-glycan (site N43); no GPI) with S69C

T3: misfolded CD59 (EGFP-FLAG-CD59 (C94S)) (UniProt P13987)
T3 sequence (chain, N-glycan (site N43); GPI-anchor): T1 sequence (chain, N-glycan (site N43); no GPI)

T4: misfolded CD59 lacking an N-glycan (EGFP-FLAG-CD59 (C94S, N43Q)) (UniProt P13987)
T4 sequence (chain, GPI-anchor; no N-glycan): T1 sequence (chain, N-glycan (site N43); no GPI) with N18Q

T5: misfolded CD59 (EGFP-FLAG-CD59 (C94S)), P13987
T5 chain: T1 sequence (chain, N-glycan (site N43); no GPI)

T6: soluble misfolded CD59 (EGFP-FLAG-CD59 (C94S, G103*)), P13987
T6 chain: T1 sequence (chain, N-glycan (site N43); no GPI)

B1: calnexin (protein, UniProt P27824 21-592)
chain: HDGHDDDVIDIEDDLDDVIEEVEDSKPDTTAPPSSPKVTYKAPVPTGEVYFADSFDRGTLSGWILSKAKKDDTDDEIAKYDGKWEVEEMKESKLPGDKGLVLMSRAKHHAISAKLNKPFLFDTKPLIVQYEVNFQNGIECGGAYVKLLSKTPELNLDQFHDKTPYTIMFGPDKCGEDYKLHFIFRHKNPKTGIYEEKHAKRPDADLKTYFTDKKTHLYTLILNPDNSFEILVDQSVVNSGNLLNDMTPPVNPSREIEDPEDRKPEDWDERPKIPDPEAVKPDDWDEDAPAKIPDEEATKPEGWLDDEPEYVPDPDAEKPEDWDEDMDGEWEAPQIANPRCESAPGCGVWQRPVIDNPNYKGKWKPPMIDNPSYQGIWKPRKIPNPDFFEDLEPFRMTPFSAIGLELWSMTSDIFFDNFIICADRRIVDDWANDGWGLKKAADGAAEPGVVGQMIEAAEERPWLWVVYILTVALPVFLVILFCCSGKKQTSGMEYKKTDAPQPDVKEEEEEKEEEKDKGDEEEEGEEKLEEKQKSDAEEDGGTVSQEEEDRKPKAEEDEILNRSPRNRKPRRE
B2: calreticulin, P27797 18-417 (protein)
chain: EPAVYFKEQFLDGDGWTSRWIESKHKSDFGKFVLSSGKFYGDEEKDKGLQTSQDARFYALSASFEPFSNKGQTLVVQFTVKHEQNIDCGGGYVKLFPNSLDQTDMHGDSEYNIMFGPDICGPGTKKVHVIFNYKGKNVLINKDIRCKDDEFTHLYTLIVRPDNTYEVKIDNSQVESGSLEDDWDFLPPKKIKDPDASKPEDWDERAKIDDPTDSKPEDWDKPEHIPDPDAKKPEDWDEEMDGEWEPPVIQNPEYKGEWKPRQIDNPDYKGTWIHPEIDNPEYSPDPSIYAYDNFGVLGLDLWQVKSGTIFDNFLITNDEAYAEEFGNETWGVTKAAEKQMKDKQDEEQRLKEEEEDKKRKEEEEAEDKEDDEDKDEDEEDEEDKEEDEEEDVPGQAKDEL
modifications: here or on the partner: N-glycan (site N43); GPI-anchor

Key:
Test in all cases: co-IP
[1] = target: T1, soluble misfolded CD59 (EGFP-FLAG-CD59 (C94S, G103*))
WT EGFP-FLAG-CD59 = target: T2, WT EGFP-FLAG-CD59
[2] = target: T3, misfolded CD59 (EGFP-FLAG-CD59 (C94S))
[3] = target: T4, misfolded CD59 lacking an N-glycan (EGFP-FLAG-CD59 (C94S, N43Q))
[4] = target: T5, misfolded CD59 (EGFP-FLAG-CD59 (C94S)), …; conditions: remark: other sources report otherwise
[5] = target: T6, soluble misfolded CD59 (EGFP-FLAG-CD59 …); conditions: remark: other sources report otherwise

| Molecule | binding [1] | binding (WT EGFP-FLAG-CD59) | binding [2] | binding [3] | binding [4] | binding [5] |
| --- | --- | --- | --- | --- | --- | --- |
| BiP (from UniProt P11021 19-654) | no binding | no binding | no binding | no binding |  |  |
| calreticulin (from UniProt P27797 18-417) |  | no binding |  | no binding |  |  |
| B1 |  | binds |  | no binding |  |  |
| B2 |  |  |  |  | no binding | no binding |
